Assay results published in paper PMC7819943, “Rice protein-binding microarrays: a tool to detect cis-acting elements near promoter regions in rice”.
The list shows a part of the results.

Chains of the proteins cited; added tags and fusions are not shown.
UniProt Q0JBA9, entry or part of it: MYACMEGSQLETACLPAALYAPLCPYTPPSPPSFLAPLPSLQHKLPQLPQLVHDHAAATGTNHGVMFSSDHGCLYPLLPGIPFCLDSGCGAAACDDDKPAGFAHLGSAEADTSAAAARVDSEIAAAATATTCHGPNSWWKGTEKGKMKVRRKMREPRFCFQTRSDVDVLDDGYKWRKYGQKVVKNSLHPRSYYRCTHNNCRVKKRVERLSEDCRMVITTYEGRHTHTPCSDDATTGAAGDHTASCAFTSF

Biological target: OsWRKY34 (Oryza sativa, UniProt Q0JBA9 1-250)
Test: protein-binding microarray (RPBM); PBS, 2% BSA, 51.3 ng/ul salmon testes DNA, 50 uM zinc acetate, 200 nM TF, 25 C, 1 h; high values mean tight binding
Settings: protein: recombinant; tags: N-terminal polyhistidine and DsRed monomer fusion (pET32a); label: CyDye5-dUTP incorporated in the synthesized complementary strand; 3' TTTTT single-stranded linker to array surface; dsDNA, one strand shown
Method in brief: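 Transcription factors, each fused N-terminally to a polyhistidine tag and DsRed, were expressed in E. coli BL21-CodonPlus and purified on Ni–NTA. A custom Agilent array was made double-stranded by primer extension with Cy5-dUTP and blocked with 2% BSA. It was incubated with 200 nM protein in PBS, 2% BSA, salmon testes DNA and 50 µM zinc acetate at 25 °C for 1 h, then washed. The binding signal is per-feature fluorescence intensity (arbitrary units) read on an Axon 4000B scanner.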

| Sequence | binding signal |
| --- | --- |
| TTACAATTTAAGGTATGCTCCATGTTGCTTATTCCTTACTCGGAGTCACCTAGTGCAG | 8040 fluorescence intensity (a.u.) |
| GACACCGCTCGTCTTCGTCAATCGAACAGTTCGATCAAGCCGGAGTCACCTAGTGCAG | 8480 fluorescence intensity (a.u.) |
| AACGGCTACTATCTCCATCTCTACCCCATCCGGGCCGTCCCGGAGTCACCTAGTGCAG | 9550 fluorescence intensity (a.u.) |
| TGGAATGGACGGATGGTTGGTTGGTTGGATGGATGACGTTCGGAGTCACCTAGTGCAG | 10300 fluorescence intensity (a.u.) |
| CAACTATTACTCTCTCCGGTTCCATATTAATTGACGTTTTCGGAGTCACCTAGTGCAG | 9300 fluorescence intensity (a.u.) |
| GTGCGTTTGTGTTCCTGTTGGGGATTGGCCAGTGAAATTACGGAGTCACCTAGTGCAG | 11400 fluorescence intensity (a.u.) |
| ATTCACCGCCACGACACTGGTATTTTTAATGAATATTTTTCGGAGTCACCTAGTGCAG | 8270 fluorescence intensity (a.u.) |
| TTAGGTGGCCCAGGAATTCACCATTTGCAACAGTTTTATCCGGAGTCACCTAGTGCAG | 8150 fluorescence intensity (a.u.) |
| CTTGAGTTTGTTAATATGGCTTGAGTTTGGTAATTAGGGGCGGAGTCACCTAGTGCAG | 12300 fluorescence intensity (a.u.) |
| CATGTACCGTGATTGACCCCAACACACACTACGCTACGTTCGGAGTCACCTAGTGCAG | 8140 fluorescence intensity (a.u.) |
| CATGATTTTTAGATCTCTTGTGGTAAATTTTGCCTTTTTTCGGAGTCACCTAGTGCAG | 9660 fluorescence intensity (a.u.) |
| GAAGGTACTACGGCATATTGTGATGAAAATGTTTCCGCCTCGGAGTCACCTAGTGCAG | 8080 fluorescence intensity (a.u.) |
| TAACTGTATTTTAAATTATGCTAGGACATTGCTTTTTTTGCGGAGTCACCTAGTGCAG | 8290 fluorescence intensity (a.u.) |
| CTTTACCACTGGCCATTTACTAAAACCTCTCCATGATATTCGGAGTCACCTAGTGCAG | 10800 fluorescence intensity (a.u.) |
| GACCGTCGCGTCCATCTGCACTGCCACCTGCACGGCAGCCCGGAGTCACCTAGTGCAG | 10000 fluorescence intensity (a.u.) |
| CAACTCAACTGCACCCTCTCTTTTGTTGTACTTTTCTTTGCGGAGTCACCTAGTGCAG | 9070 fluorescence intensity (a.u.) |
| CCGACTCAACCATTGCATGACACTACTGTTATTTTCCTAGCGGAGTCACCTAGTGCAG | 9900 fluorescence intensity (a.u.) |
| TTGTTTCATCGCACCTCTTGATTACTGATAATTTCCTATACGGAGTCACCTAGTGCAG | 9340 fluorescence intensity (a.u.) |
| TTCTCCGACGAAGCCCATCCTTGGCGAAGCCCGTGTGTTCCGGAGTCACCTAGTGCAG | 8080 fluorescence intensity (a.u.) |
| CGCCGTCCATCTCCATTAATGCCTCCATCCACCTCGCCCACGGAGTCACCTAGTGCAG | 14400 fluorescence intensity (a.u.) |
| GTCGTCGTCGTCGTCACCGGGTCTTCGTCGAGACCCTGACCGGAGTCACCTAGTGCAG | 8050 fluorescence intensity (a.u.) |

For convenience, some entries already given.

| Sequence | binding signal |
| --- | --- |
| CAACTCAACTGCACCCTCTCTTTTGTTGTACTTTTCTTTGCGGAGTCACCTAGTGCAG | 9070 fluorescence intensity (a.u.) |
| CCGACTCAACCATTGCATGACACTACTGTTATTTTCCTAGCGGAGTCACCTAGTGCAG | 9900 fluorescence intensity (a.u.) |
| TTGTTTCATCGCACCTCTTGATTACTGATAATTTCCTATACGGAGTCACCTAGTGCAG | 9340 fluorescence intensity (a.u.) |

(further entries)

| Sequence | binding signal |
| --- | --- |
| GCGCTTGTGACGCGCGCGTTTGGTGCTGTGGACTGTATGTCGGAGTCACCTAGTGCAG | 8110 fluorescence intensity (a.u.) |
| AACCCTCTCCATTTGCAAATCGCAACCATCTCGTCAACAACGGAGTCACCTAGTGCAG | 11100 fluorescence intensity (a.u.) |
| GATGAACACCAGGTCAACACCGCCATGTCAACGCCACATTCGGAGTCACCTAGTGCAG | 8160 fluorescence intensity (a.u.) |
| ATATCTTCAACTCACCGTAATGGACAAAACATTTAAAATACGGAGTCACCTAGTGCAG | 12700 fluorescence intensity (a.u.) |
| CCAAGTACATTTTTTTCGTTTAATCATTTTTTCATCTTGTCGGAGTCACCTAGTGCAG | 11800 fluorescence intensity (a.u.) |
| TTGCCCATTCTTGTCAAGCGGAGCAGAGTACACCGCCTACCGGAGTCACCTAGTGCAG | 8090 fluorescence intensity (a.u.) |
| TCACCGATCCGCGTACTCTCTCCTCATTGGCTGCCTCCTCCGGAGTCACCTAGTGCAG | 9060 fluorescence intensity (a.u.) |
| CCTCCACTCGTTCCTACTACTTCCTGGTTGCATTCGCCGCCGGAGTCACCTAGTGCAG | 8090 fluorescence intensity (a.u.) |
| GGACTAACAAGTGGGCCCATATTTTTTTATTTTATCCTTTCGGAGTCACCTAGTGCAG | 9900 fluorescence intensity (a.u.) |
| TCCTTTCCTTTCCTTCTCCACTCCGCCATCCGCAACCGCCCGGAGTCACCTAGTGCAG | 11100 fluorescence intensity (a.u.) |
| ATTCCCTTGCGTTTTGATCGTGTAGCCCAATACGACGGCCCGGAGTCACCTAGTGCAG | 9340 fluorescence intensity (a.u.) |
| AGCCCATTTATATCTCACGTTTCATTGAAGTCCATTTTTTCGGAGTCACCTAGTGCAG | 13900 fluorescence intensity (a.u.) |
| ATGGGAGGTGGGTGGTACCGTGGTGGTGGTCGCAGATCTGCGGAGTCACCTAGTGCAG | 27200 fluorescence intensity (a.u.) |
| TAGCCCAGTTTGTATAATAGAATTTGTTATTTATTTGCGTCGGAGTCACCTAGTGCAG | 8410 fluorescence intensity (a.u.) |
| GGTCTCGTTCCCGCCGCATTTGCTTAACATTCTCAAACCGCGGAGTCACCTAGTGCAG | 8420 fluorescence intensity (a.u.) |
| TTCATTCGTACTGGTACATGCATTCGCATCTTCTTCGCCTCGGAGTCACCTAGTGCAG | 9420 fluorescence intensity (a.u.) |
| CATCGTCCACCCATGTTCCGCCGCCATATCCGCTCTCCGCCGGAGTCACCTAGTGCAG | 10900 fluorescence intensity (a.u.) |
| ATCAGGCCCACGGCCCAATCGCCGTCCACCACCCACCACCCGGAGTCACCTAGTGCAG | 8690 fluorescence intensity (a.u.) |
| ACCCCAACCCATCCACCGAGACAGGAATGCTCTCACGCAACGGAGTCACCTAGTGCAG | 8310 fluorescence intensity (a.u.) |
| ATCTACTACACACATGACACATTCCCATCTTTCCAATGTCCGGAGTCACCTAGTGCAG | 10700 fluorescence intensity (a.u.) |
| TTGTTTAACACCAAGGCTCTGTTCGTTCTCTCCCAGTTGGCGGAGTCACCTAGTGCAG | 9110 fluorescence intensity (a.u.) |
